# Measurements published in the supplement of paper PMC12067093, “Discovery and optimisation of a covalent ligand for TRIM25 and its application to targeted protein ubiquitination” (Chemical Science, 2025).
# By UniProt entry, the sequences of proteins in these tests, tags left out. Where a name states a change or a piece, a line headed by the entry shows the natural chain unless it says otherwise.
# UniProt Q13422: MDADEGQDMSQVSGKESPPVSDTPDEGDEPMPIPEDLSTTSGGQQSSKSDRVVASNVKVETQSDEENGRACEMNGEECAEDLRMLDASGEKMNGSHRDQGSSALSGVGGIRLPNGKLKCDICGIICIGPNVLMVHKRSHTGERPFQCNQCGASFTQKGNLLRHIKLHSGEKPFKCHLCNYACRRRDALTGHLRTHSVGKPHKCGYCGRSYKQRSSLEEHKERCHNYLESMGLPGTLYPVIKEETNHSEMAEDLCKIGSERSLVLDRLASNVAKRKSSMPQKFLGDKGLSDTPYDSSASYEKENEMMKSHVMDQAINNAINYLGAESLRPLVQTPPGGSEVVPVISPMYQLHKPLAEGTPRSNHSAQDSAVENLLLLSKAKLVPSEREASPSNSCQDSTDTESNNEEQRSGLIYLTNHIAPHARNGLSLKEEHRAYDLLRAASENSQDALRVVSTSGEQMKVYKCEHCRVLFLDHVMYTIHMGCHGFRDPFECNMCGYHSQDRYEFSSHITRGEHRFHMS
# UniProt P41252: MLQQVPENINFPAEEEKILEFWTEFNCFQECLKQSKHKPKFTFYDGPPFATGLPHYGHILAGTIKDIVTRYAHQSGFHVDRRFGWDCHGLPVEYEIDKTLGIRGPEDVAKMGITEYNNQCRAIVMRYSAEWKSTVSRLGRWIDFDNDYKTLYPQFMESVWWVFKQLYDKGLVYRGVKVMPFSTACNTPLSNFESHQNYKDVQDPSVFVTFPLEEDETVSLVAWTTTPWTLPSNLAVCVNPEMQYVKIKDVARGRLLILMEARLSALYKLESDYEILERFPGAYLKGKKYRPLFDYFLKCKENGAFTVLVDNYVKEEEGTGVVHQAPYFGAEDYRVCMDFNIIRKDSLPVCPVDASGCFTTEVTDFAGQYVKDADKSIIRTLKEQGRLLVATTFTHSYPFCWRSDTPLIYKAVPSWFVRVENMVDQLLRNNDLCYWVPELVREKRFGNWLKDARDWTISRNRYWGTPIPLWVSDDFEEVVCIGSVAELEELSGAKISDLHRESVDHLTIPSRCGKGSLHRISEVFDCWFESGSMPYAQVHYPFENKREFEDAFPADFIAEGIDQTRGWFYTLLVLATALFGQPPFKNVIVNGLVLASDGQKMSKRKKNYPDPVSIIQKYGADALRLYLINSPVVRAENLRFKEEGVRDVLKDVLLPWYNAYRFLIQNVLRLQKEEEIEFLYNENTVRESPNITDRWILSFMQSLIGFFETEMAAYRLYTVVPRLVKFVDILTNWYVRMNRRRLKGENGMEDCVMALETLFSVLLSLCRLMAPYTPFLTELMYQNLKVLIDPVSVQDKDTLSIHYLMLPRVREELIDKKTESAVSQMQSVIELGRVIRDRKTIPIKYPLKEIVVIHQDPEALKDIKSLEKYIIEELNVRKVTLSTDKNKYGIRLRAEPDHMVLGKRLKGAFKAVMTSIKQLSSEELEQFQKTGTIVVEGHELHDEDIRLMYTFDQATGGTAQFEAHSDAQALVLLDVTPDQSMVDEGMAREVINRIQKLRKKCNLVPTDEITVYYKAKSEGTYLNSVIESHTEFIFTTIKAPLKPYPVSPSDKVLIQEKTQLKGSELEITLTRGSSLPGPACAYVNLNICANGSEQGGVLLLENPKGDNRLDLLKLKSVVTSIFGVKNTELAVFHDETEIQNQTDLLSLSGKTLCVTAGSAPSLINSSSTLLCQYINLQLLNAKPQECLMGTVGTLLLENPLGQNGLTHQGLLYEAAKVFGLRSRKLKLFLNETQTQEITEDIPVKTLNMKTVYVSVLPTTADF
# UniProt Q9Y6K9, whole entry, looked up: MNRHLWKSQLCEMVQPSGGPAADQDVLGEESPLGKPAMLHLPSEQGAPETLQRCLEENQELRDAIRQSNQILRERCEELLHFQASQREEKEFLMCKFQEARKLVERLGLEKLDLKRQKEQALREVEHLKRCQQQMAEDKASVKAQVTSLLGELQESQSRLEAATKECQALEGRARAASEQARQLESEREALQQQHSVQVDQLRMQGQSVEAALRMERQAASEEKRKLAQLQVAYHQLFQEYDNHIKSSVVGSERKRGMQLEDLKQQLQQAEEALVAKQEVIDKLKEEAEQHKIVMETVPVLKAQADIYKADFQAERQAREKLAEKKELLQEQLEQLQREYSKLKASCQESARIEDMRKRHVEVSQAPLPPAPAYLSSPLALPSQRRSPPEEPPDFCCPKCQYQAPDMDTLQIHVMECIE
# UniProt P29218: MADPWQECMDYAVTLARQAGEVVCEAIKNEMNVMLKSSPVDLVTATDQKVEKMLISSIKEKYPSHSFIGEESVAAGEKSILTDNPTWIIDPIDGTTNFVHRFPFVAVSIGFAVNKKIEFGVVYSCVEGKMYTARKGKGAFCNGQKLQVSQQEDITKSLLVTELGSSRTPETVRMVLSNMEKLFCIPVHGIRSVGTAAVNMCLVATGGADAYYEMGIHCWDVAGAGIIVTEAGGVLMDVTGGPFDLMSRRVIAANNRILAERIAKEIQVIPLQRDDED
# UniProt Q27J81, whole entry, looked up: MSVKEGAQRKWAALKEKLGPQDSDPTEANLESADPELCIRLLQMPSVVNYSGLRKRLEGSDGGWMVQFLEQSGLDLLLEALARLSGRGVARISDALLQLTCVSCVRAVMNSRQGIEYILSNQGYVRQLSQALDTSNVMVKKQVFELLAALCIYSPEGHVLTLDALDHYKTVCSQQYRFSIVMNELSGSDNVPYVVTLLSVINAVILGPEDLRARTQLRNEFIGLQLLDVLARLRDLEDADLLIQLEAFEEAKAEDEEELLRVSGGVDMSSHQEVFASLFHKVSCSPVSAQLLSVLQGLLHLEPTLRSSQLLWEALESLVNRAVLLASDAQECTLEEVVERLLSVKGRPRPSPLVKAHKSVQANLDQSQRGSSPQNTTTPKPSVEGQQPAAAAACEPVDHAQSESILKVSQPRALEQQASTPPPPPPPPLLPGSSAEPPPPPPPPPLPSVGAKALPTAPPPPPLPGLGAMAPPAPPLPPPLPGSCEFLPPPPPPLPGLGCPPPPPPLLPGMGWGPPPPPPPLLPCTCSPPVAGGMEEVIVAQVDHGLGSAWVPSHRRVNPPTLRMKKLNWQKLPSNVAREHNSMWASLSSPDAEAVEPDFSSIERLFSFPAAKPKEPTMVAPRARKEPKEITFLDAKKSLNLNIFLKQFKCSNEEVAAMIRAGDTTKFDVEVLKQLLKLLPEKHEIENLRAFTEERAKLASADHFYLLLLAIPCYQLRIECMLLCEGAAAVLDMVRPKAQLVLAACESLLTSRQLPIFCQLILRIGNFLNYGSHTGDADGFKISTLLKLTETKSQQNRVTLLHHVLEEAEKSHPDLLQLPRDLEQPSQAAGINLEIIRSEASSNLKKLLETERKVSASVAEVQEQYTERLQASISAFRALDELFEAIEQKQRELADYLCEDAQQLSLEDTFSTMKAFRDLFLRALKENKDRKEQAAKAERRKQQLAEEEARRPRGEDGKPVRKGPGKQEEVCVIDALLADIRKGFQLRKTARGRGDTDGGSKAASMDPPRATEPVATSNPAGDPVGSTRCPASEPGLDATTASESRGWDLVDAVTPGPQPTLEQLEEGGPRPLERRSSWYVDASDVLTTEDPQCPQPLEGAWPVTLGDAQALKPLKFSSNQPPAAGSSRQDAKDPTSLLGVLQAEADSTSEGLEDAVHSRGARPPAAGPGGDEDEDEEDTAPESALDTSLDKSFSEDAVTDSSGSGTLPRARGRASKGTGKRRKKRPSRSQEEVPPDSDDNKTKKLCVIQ
# UniProt P22692: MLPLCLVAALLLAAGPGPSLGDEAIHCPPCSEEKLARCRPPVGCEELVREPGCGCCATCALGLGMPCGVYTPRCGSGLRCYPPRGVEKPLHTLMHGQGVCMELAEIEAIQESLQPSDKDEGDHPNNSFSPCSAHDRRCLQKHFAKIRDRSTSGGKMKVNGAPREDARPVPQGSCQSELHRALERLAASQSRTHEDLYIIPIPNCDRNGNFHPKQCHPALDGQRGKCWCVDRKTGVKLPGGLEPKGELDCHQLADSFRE
# UniProt P49441: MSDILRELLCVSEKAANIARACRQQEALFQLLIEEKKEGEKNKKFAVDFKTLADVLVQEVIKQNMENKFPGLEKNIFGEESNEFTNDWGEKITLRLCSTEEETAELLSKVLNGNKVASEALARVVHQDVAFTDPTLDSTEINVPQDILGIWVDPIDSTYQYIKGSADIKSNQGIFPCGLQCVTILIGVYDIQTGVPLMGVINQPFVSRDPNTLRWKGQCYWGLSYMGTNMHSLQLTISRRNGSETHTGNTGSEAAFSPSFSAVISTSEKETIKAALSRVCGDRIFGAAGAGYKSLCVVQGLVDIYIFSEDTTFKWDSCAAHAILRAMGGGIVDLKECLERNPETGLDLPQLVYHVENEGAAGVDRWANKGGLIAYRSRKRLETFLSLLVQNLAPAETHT
# UniProt Q16666: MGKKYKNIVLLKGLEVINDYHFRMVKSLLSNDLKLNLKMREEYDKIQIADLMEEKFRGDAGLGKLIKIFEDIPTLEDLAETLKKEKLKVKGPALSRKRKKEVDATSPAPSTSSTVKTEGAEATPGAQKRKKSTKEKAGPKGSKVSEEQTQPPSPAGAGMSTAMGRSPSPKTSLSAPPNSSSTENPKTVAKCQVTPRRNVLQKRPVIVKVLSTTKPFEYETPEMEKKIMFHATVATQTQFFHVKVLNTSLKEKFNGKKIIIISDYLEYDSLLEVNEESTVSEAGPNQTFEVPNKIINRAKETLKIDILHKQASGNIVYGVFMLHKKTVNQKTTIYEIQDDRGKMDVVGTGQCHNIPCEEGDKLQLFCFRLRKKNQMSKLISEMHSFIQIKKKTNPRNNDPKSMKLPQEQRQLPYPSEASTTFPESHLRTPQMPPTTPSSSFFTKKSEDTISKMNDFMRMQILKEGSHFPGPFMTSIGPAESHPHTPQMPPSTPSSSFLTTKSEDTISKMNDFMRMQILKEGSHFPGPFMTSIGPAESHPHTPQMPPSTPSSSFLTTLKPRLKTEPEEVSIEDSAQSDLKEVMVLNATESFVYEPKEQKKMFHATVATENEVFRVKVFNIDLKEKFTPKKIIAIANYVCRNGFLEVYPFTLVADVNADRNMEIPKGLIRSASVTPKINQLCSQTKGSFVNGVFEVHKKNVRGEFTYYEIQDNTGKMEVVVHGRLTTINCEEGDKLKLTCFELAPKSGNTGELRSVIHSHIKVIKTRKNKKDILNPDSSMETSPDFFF
# UniProt Q9Y6M1: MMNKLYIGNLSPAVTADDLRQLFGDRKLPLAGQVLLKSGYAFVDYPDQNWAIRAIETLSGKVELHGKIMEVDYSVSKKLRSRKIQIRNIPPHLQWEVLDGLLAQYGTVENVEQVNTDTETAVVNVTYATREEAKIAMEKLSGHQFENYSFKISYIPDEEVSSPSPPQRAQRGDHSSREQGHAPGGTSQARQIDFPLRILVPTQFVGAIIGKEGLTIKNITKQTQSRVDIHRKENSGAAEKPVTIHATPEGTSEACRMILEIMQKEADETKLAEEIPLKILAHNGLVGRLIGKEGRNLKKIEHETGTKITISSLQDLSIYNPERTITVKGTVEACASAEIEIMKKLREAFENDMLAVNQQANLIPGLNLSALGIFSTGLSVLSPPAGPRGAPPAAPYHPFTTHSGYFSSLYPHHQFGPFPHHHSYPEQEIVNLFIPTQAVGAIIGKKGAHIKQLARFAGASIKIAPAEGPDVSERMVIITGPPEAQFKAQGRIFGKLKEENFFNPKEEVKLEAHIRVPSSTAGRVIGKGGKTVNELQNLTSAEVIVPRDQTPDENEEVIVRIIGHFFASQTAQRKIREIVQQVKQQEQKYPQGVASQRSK
# UniProt Q9P2X3: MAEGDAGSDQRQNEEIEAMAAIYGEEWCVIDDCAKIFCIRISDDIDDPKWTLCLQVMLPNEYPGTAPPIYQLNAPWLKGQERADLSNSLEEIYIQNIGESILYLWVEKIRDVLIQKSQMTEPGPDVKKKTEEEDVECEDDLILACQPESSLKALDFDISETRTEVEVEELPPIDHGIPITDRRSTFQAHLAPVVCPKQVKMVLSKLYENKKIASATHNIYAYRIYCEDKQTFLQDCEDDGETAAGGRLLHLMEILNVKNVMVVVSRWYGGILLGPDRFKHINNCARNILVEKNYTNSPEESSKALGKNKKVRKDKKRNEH
# UniProt Q12905: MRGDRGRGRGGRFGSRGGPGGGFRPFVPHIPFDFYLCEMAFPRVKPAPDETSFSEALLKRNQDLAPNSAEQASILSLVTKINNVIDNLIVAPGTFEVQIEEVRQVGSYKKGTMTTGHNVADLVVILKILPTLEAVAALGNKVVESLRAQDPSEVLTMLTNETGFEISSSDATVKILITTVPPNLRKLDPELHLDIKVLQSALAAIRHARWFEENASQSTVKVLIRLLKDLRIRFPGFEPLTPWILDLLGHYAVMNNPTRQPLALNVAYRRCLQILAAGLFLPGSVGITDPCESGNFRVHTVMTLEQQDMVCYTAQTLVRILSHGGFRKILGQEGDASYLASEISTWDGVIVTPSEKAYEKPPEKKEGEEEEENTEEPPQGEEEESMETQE
# The other results are listed elsewhere or left out.
# Compound: CC1Cc2ccccc2N1C(=O)C1CCCN(C1)C(=O)CCl (mixture of isomers) [TRIM25 ligand 11 (diastereomer mixture)]
# Assay: probe-labelled cysteine peptide fold change vs DMSO (competition) (log2 fold change); higher = less target engagement (more negative = stronger competition)
# Conditions: THP-1, incubation time: 4 h
# 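Note: competitive chemoproteomic profiling in live THP-1 cells with an iodoacetamide desthiobiotin (IA-DTB) probe, comparing probe-labelled peptide intensities in compound-treated cells against DMSO-treated controls.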
Target,probe-labelled cysteine peptide fold change (10 µM),probe-labelled cysteine peptide fold change (50 µM)
IGF2R_P11717_475_EKEDLLCGATDGK (UniProt P11717),-0.063,-0.166
IKZF1_Q13422_71_ACEMNGEECAEDLR (UniProt Q13422),-0.344,-0.414
IGF2R_P11717_1042_FVCNDDVYSGPLK (UniProt P11717),0.0448,-0.0425
HUWE1_Q7Z6Z7_349_LSSIIDCTGTASYHGFLPVLVR (UniProt Q7Z6Z7),0.118,-0.11
IARS_P41252_433_NNDLCYWVPELVR (UniProt P41252),0.379,0.188
IMPDH1_P20839_215_LPIVNDCDELVAIIAR (UniProt P20839),-0.0181,0.0351
IGBP1_P78318_116+118_EHFINYLTQCHCYHVAEFELPK (UniProt P78318),0.0719,0.0982
IGF2R_P11717_1987_VVCPPK (UniProt P11717),-0.121,0.0903
IKZF1_Q13422_394_EASPSNSCQDSTDTESNNEEQR (UniProt Q13422),0.184,-0.141
IGF2R_P11717_1516_SNEHDDCQVTNPSTGHLFDLSSLSGR (UniProt P11717),0.163,-0.255
IKBKG_Q9Y6K9_76_CEELLHFQASQR (UniProt Q9Y6K9),0.15,-0.0962
IMPA1_P29218_125_KIEFGVVYSCVEGK (UniProt P29218),0.172,0.175
INF2_Q27J81_101_ISDALLQLTCVSCVR (UniProt Q27J81),-0.284,-0.0718
ILKAP_Q9H0C8_135_EEMQDAHVILNDITEECRPPSSLITR (UniProt Q9H0C8),0.0678,-0.0787
IARS2_Q9NSE4_521_RPYWCISR (UniProt Q9NSE4),-0.0354,0.196
IGF2R_P11717_1856_DGGVCLLSGTK (UniProt P11717),-0.0798,-0.0318
IGSF8_Q969P0_127_LQAQDAGIYECHTPSTDTR (UniProt Q969P0),0.106,0.0925
IGF2R_P11717_1975_GCDVTFEWK (UniProt P11717),-0.0246,0.00792
HUWE1_Q7Z6Z7_2106_EDCSVLAFVLDHLLPHTQNAEDK (UniProt Q7Z6Z7),-0.0582,0.269
INO80_Q9ULG1_1001+1011_CLLTELPSFLCVASPR (UniProt Q9ULG1),-0.0961,-0.462
INO80_Q9ULG1_1049_QCLLNGAPELAADWLNRR (UniProt Q9ULG1),-0.0908,-0.0701
IFT81_Q8WYA0_569_YHYTNCMIK (UniProt Q8WYA0),0.00945,0.241
ILVBL_A1L0T0_568_EQVPSLGSNVACGLAYTDYHK (UniProt A1L0T0),0.0322,-0.0148
IKBKG_Q9Y6K9_54_CLEENQELR (UniProt Q9Y6K9),-0.00175,-0.0833
IL1RAP_Q9NPH3_24_CDDWGLDTMR (UniProt Q9NPH3),0.0294,-0.0106
ILKAP_Q9H0C8_135_KGEREEMQDAHVILNDITEECRPPSSLITR (UniProt Q9H0C8),-0.145,-0.111
IMPDH2_P12268_173_DIDFLKEEEHDCFLEEIMTK (UniProt P12268),-0.147,-0.0901

Target,probe-labelled cysteine peptide fold change (10 µM),probe-labelled cysteine peptide fold change (50 µM)
IDUA_P35475_241_HCHDGTNFFTGEAGVR (UniProt P35475),0.149,-0.0722
INPP5A_Q14642_53_PHFMALHCQEFGGK (UniProt Q14642),0.0159,0.232
IGFBP4_P22692_249_GELDCHQLADSFRE (UniProt P22692),-0.0513,-0.197
IARS_P41252_336_EEEGTGVVHQAPYFGAEDYRVCMDFNIIR (UniProt P41252),0.139,-0.315
INPP1_P49441_10_ELLCVSEK (UniProt P49441),-0.0487,0.00513
IGF2R_P11717_84_INICGSVDIVQCGPSSAVCMHDLK (UniProt P11717),-0.056,-0.148
IARS2_Q9NSE4_110_TEFCLHDGPPYANGDPHVGHALNK (UniProt Q9NSE4),0.0161,-0.0635
IMPA1_P29218_24_QAGEVVCEAIK (UniProt P29218),-0.0409,0.00892
IDH3A_P50213_351+359_CSDFTEEICR (UniProt P50213),-0.0227,-0.189
IKZF1_Q13422_182_CHLCNYACR (UniProt Q13422),0.06,0.198
IFI16_Q16666_637_IIAIANYVCR (UniProt Q16666),-0.193,-0.0508
IARS2_Q9NSE4_883_KPGLEEAVESACAMR (UniProt Q9NSE4),0.0328,0.0447
ILKAP_Q9H0C8_135_GEREEMQDAHVILNDITEECRPPSSLITR (UniProt Q9H0C8),-0.0165,-0.168
IFT88_Q13099_162_EVNELVEESCIANSCGDLK (UniProt Q13099),-0.0236,-0.195
IFIH1_Q9BYX4_138_CMEEELLTIEDR (UniProt Q9BYX4),-0.00673,-0.191
HTT_P42858_1708_IQELSFSPYLISCTVINR (UniProt P42858),-0.298,-0.0732
IFT80_Q9P2H3_210_VDWNSVNDLILSAGEDCK (UniProt Q9P2H3),0.181,0.161
IGF2BP2_Q9Y6M1_255_ENSGAAEKPVTIHATPEGTSEACR (UniProt Q9Y6M1),-0.0717,-0.178
IGF2R_P11717_830_YASACQMK (UniProt P11717),-0.0974,-0.00457
IGF2R_P11717_531_GCPEDAAVCAVDK (UniProt P11717),0.0614,0.0238
ILKAP_Q9H0C8_301_CGVTSVPDIR (UniProt Q9H0C8),-0.027,0.0391
IDH2_P48735_154_NILGGTVFREPIICK (UniProt P48735),-0.0639,-0.083
IFIH1_Q9BYX4_17_YLISCFR (UniProt Q9BYX4),0.00934,0.2
IMPACT_Q9P2X3_137_KKTEEEDVECEDDLILACQPESSLK (UniProt Q9P2X3),-0.217,-0.0824
IGF2BP2_Q9Y6M1_255_PVTIHATPEGTSEACR (UniProt Q9Y6M1),0.153,0.107
INPP1_P49441_97_LCSTEEETAELLSK (UniProt P49441),-0.0128,0.0897
HUWE1_Q7Z6Z7_467_LEHEVDLCR (UniProt Q7Z6Z7),0.267,0.232

Target,probe-labelled cysteine peptide fold change (10 µM),probe-labelled cysteine peptide fold change (50 µM)
HUWE1_Q7Z6Z7_790_FVESILSNNTTDDHCQEFVNQK (UniProt Q7Z6Z7),-0.153,-0.214
INF2_Q27J81_1029_CPASEPGLDATTASESR (UniProt Q27J81),-0.107,-0.146
IGF2R_P11717_1927_LWCSTTADYDRDHEWGFCR (UniProt P11717),-0.00851,-0.173
IGF2R_P11717_174_EVPCYVFDEELR (UniProt P11717),0.0645,0.101
IGF2R_P11717_1349_ETSDCSYLFEWR (UniProt P11717),0.0257,0.123
IFI16_Q16666_737_LTCFELAPK (UniProt Q16666),-0.072,-0.0658
ILF2_Q12905_291_CLQILAAGLFLPGSVGITDPCESGNFR (UniProt Q12905),-0.0218,0.268
INCENP_Q9NQS7_355_IICHSYLER (UniProt Q9NQS7),0.0585,-0.0175
HUWE1_Q7Z6Z7_3361_ETNCESDRER (UniProt Q7Z6Z7),-0.138,-0.153
ILF2_Q12905_311_VHTVMTLEQQDMVCYTAQTLVR (UniProt Q12905),0.242,-0.0569
IDH1_O75874_73_CATITPDEK (UniProt O75874),-0.0431,-0.0307
IGFBP4_P22692_174_EDARPVPQGSCQSELHR (UniProt P22692),-0.0871,-0.193
IMPACT_Q9P2X3_284_HINNCAR (UniProt Q9P2X3),-0.0325,-0.492
IFI35_P80217_107_EHTINMEECR (UniProt P80217),-0.0214,-0.0266
IMPACT_Q9P2X3_195_STFQAHLAPVVCPK (UniProt Q9P2X3),-0.0535,-0.381
IGF2R_P11717_572_GNIQLSYSDGDDCGHGK (UniProt P11717),0.0683,-0.0345
HUWE1_Q7Z6Z7_1879_VLGPAACR (UniProt Q7Z6Z7),-0.135,0.0352
INO80E_Q8NBZ0_31_FLIYEHECFQEELRK (UniProt Q8NBZ0),-0.0187,0.0537
IKBKB_O14920_524_EMEQAVELCGR (UniProt O14920),0.182,0.0969
ILKAP_Q9H0C8_325_FILLACDGLFK (UniProt Q9H0C8),-0.0149,-0.091
HUWE1_Q7Z6Z7_699_YICQKPSIQK (UniProt Q7Z6Z7),-0.0652,-0.209
IGF2R_P11717_134_VQSSIAFLCGK (UniProt P11717),-0.36,-0.452
IGF2R_P11717_1795_TSECDFVFEWETPVVCPDEVR (UniProt P11717),-0.233,-0.0471
IDNK_Q5T6J7_83_VVLACSALK (UniProt Q5T6J7),0.0519,0.189
IGF2R_P11717_538_GCPEDAAVCAVDK (UniProt P11717),0.0423,-0.0501
